{"sequences": {"note": "Amino acid sequences for entries named in this document (tags omitted). A change or cut given only in a name is not applied to a line headed by its entry.", "UniProt Q13442": "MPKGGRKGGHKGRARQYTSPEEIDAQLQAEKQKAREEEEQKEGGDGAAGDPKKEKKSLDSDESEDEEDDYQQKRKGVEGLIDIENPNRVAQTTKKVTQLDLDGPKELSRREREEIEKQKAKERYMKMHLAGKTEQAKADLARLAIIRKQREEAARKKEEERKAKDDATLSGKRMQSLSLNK", "UniProt Q14141": "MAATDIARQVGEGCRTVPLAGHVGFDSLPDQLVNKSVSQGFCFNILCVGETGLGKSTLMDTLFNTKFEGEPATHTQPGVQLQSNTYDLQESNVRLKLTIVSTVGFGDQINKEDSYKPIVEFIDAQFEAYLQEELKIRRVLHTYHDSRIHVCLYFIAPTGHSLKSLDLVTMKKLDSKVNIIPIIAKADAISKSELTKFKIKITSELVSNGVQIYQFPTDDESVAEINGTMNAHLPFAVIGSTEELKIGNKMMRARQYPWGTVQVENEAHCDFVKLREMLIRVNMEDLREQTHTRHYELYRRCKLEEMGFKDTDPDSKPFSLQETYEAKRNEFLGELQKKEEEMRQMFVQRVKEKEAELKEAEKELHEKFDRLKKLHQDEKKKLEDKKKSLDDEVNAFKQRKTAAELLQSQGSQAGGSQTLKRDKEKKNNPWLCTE", "UniProt Q14644": "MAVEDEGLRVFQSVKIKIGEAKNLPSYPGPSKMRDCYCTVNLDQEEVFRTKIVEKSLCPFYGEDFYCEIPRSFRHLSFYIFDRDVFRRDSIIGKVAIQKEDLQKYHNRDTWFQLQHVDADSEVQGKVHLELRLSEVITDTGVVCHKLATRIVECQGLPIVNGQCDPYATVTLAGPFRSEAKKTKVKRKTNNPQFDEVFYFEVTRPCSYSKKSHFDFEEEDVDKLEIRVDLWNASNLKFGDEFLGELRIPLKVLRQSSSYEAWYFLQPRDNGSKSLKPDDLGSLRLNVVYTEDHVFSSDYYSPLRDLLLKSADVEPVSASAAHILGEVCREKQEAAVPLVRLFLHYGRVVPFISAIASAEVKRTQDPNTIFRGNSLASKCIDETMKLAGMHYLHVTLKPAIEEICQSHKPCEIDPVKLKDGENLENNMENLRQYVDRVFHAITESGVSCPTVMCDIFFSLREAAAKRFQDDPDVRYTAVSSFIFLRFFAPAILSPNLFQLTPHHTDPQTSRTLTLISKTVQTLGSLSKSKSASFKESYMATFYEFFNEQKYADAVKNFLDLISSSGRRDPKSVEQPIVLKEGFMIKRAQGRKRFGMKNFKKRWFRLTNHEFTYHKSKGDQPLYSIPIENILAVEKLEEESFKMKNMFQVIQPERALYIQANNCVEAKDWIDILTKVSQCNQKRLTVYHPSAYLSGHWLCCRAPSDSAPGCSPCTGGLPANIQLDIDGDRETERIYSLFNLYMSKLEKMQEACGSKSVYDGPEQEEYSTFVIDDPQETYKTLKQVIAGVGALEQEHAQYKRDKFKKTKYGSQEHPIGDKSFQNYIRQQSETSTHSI", "UniProt Q14011": "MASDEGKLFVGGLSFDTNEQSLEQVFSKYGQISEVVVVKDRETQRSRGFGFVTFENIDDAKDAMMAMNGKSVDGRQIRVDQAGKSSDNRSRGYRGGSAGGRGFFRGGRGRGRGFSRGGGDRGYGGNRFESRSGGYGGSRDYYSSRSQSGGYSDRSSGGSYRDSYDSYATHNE", "UniProt Q13643": "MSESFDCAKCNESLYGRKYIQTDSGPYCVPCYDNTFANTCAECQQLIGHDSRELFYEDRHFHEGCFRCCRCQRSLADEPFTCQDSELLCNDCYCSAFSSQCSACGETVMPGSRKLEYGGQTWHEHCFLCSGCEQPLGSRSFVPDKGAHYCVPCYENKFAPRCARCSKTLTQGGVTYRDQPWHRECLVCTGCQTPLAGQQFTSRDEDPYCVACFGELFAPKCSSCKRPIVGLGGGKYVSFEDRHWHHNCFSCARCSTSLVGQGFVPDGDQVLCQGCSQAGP", "UniProt Q13616, whole entry": "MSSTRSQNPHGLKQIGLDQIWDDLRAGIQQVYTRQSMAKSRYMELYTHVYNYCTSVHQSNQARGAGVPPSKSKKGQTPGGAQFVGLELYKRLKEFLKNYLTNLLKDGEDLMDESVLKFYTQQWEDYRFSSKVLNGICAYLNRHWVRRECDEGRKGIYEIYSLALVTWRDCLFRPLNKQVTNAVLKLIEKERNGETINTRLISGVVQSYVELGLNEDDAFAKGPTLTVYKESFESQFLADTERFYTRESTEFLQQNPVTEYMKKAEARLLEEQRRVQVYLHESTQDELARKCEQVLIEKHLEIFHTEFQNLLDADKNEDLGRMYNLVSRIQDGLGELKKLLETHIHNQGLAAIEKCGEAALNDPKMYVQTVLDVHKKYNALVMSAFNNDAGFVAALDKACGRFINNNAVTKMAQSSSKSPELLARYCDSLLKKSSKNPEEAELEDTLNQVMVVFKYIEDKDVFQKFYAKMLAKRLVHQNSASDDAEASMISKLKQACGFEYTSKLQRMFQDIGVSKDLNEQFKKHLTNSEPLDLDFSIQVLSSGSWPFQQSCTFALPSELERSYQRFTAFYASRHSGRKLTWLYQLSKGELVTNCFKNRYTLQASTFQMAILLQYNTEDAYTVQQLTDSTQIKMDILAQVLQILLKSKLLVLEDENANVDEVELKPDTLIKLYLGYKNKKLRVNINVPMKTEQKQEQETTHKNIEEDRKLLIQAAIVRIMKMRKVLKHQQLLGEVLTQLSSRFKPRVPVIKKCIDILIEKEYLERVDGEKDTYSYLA", "UniProt Q13596, whole entry": "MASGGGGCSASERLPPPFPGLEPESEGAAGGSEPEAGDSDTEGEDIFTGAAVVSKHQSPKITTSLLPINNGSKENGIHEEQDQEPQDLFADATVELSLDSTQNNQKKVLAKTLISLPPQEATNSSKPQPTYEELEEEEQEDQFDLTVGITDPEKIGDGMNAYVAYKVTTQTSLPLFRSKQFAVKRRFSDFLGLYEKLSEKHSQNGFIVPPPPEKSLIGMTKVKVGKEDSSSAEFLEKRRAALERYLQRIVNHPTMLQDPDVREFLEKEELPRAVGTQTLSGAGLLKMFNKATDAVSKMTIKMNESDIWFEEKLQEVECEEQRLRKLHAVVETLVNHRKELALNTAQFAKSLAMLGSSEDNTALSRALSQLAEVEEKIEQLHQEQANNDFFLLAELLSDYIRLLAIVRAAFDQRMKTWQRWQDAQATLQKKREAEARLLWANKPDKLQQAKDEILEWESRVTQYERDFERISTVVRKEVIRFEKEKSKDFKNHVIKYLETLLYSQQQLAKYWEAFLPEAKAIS", "UniProt Q14207": "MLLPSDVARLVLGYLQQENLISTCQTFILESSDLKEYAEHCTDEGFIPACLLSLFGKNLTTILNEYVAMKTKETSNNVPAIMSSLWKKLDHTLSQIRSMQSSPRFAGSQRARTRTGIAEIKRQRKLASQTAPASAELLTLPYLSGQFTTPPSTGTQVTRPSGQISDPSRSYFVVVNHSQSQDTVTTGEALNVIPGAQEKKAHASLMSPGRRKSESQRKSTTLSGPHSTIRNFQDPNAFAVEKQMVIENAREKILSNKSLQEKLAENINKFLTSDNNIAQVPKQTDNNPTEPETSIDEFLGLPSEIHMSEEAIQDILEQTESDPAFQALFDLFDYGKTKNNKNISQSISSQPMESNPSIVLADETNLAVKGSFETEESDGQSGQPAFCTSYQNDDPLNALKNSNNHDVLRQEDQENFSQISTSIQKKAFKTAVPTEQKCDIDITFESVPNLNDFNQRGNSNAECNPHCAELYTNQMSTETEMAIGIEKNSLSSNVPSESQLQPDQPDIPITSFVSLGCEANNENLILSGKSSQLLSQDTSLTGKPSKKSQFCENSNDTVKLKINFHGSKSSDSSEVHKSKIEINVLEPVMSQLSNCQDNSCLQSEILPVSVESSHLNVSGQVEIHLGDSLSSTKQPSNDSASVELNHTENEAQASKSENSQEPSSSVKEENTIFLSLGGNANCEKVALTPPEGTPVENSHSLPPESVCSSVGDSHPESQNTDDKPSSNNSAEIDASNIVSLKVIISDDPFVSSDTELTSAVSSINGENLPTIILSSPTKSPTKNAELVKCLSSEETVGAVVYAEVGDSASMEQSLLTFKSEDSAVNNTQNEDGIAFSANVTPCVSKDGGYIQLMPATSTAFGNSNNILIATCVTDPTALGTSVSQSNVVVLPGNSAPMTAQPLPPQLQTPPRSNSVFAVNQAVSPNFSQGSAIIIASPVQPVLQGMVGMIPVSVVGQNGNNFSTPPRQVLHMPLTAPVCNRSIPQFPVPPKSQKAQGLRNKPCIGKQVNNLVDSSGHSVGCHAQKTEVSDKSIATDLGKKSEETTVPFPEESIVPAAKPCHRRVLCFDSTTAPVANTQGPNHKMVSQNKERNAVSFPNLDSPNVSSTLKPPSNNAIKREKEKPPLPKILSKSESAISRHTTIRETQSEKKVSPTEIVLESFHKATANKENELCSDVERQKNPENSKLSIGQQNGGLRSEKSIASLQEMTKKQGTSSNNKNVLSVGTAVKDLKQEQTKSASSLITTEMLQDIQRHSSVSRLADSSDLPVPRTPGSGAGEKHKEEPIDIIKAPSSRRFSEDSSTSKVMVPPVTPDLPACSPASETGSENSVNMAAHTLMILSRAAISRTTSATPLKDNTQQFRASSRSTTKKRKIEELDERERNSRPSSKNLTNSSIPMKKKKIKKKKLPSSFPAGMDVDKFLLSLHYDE"}, "source": "the supplement of paper PMC12819154", "about": "“High-throughput peptide-centric local stability assay extends protein–ligand identification to membrane proteins, tissues and bacteria” (Nature Structural & Molecular Biology, 2025)", "note": "The list shows a part of the results. Most values lie at the level of the controls, where differences are scatter.", "data": [{"compound": "Cc1nc(Nc2ncc(C(=O)Nc3c(C)cccc3Cl)s2)cc(N2CCN(CCO)CC2)n1 [dasatinib]", "test": "log2 fold change of tryptic peptide abundance, ligand vs vehicle (limited proteolysis) (log2 ratio); higher = more trypsin-susceptible (destabilized)", "settings": "ligand concentration: 5 uM; sample: K562 cleared lysate", "values": [{"target": "PDAP1 (peptide sequence: AREEEEQK, peptide start residue: 34) (UniProt Q13442)", "log2 fold change": 0.13}, {"target": "UniProt Q14141 (peptide sequence: KSLDDEVNAFK, peptide start residue: 387)", "log2 fold change": -0.471}, {"target": "RASA3 (peptide sequence: TKYGSQEHPIGDK, peptide start residue: 805) (UniProt Q14644)", "log2 fold change": 0.288}, {"target": "CIRBP (peptide sequence: SGGYGGSRDYYSSR, peptide start residue: 132) (UniProt Q14011)", "log2 fold change": 0.64}, {"target": "FHL3 (peptide sequence: CSSCKRPIVGLGGGK, peptide start residue: 221) (UniProt Q13643)", "log2 fold change": -0.349}, {"target": "CUL1 (peptide sequence: FINNNAVTK, peptide start residue: 402) (UniProt Q13616)", "log2 fold change": -0.428}, {"target": "SNX1 (peptide sequence: LQQAKDEILEWESR, peptide start residue: 446) (UniProt Q13596)", "log2 fold change": 0.177}, {"target": "NPAT (peptide sequence: SSQLLSQDTSLTGKPSK, peptide start residue: 530) (UniProt Q14207)", "log2 fold change": 0.465}]}]}
